In the supplement of paper PMC8728848:
Some of the results follow.

How the values were obtained:
Test in all cases: glycan array binding signal (z-score within array); higher = stronger binding
Conditions in all cases: glycan notation: IUPAC condensed, linker removed
[1] = target: Man(a1-2)Man(a1-3)[Man(a1-2)Man(a1-6)]Man(a1-6)[Man(a1-2)Man(a1-2)Man(a1-3)]Man(b1-4)GlcNAc(b1-4)GlcNAc
In short: (§1)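 The binding signal is a Z-score computed within each array and averaged over linkers. Arrays of the same protein sequence at different concentrations or buffers were also averaged together. Data originate from 3228 arrays in the Consortium for Functional Glycomics database, kept only where the protein sequence was available.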

[2] = target: Man(a1-2)Man(a1-3)[Man(a1-6)]Man(a1-6)[Man(a1-2)Man(a1-3)]Man(b1-4)GlcNAc(b1-4)GlcNAc
In short: as §1

[3] = target: Man(a1-2)Man(a1-6)[Man(a1-3)]Man(a1-6)[Man(a1-2)Man(a1-2)Man(a1-3)]Man
In short: as §1

[4] = target: Man(a1-2)Man(a1-6)[Man(a1-3)]Man(a1-6)[Man(a1-2)Man(a1-2)Man(a1-3)]Man(b1-4)GlcNAc(b1-4)GlcNAc
In short: as §1

Man(a1-3)[Man(a1-6)]Man = target: Man(a1-3)[Man(a1-6)]Man
In short: as §1

[5] = target: Man(a1-3)[Man(a1-6)]Man(a1-6)[Man(a1-2)Man(a1-3)]Man(b1-4)GlcNAc(b1-4)GlcNAc
In short: as §1

[6] = target: Man(a1-3)[Man(a1-6)]Man(a1-6)[Man(a1-3)]Man
In short: as §1

[7] = target: Man(a1-3)[Man(a1-6)]Man(a1-6)[Man(a1-3)]Man(b1-4)GlcNAc(b1-4)GlcNAc
In short: as §1

[8] = target: Man(a1-3)[Man(a1-6)]Man(b1-4)GlcNAc(b1-4)GlcNAc
In short: as §1

[9] = target: Man(a1-3)[Man(a1-6)]Man(b1-4)GlcNAc(b1-4)[Fuc(a1-6)]GlcNAc
In short: as §1

Man(a1-6)Man = target: Man(a1-6)Man
In short: as §1

Man(b1-4)GlcNAc = target: Man(b1-4)GlcNAc
In short: as §1

MurNAc(b1-4)GlcNAc = target: MurNAc(b1-4)GlcNAc
In short: as §1

Neu5Ac(a2-3)Gal = target: Neu5Ac(a2-3)Gal
In short: as §1

[10] = target: Neu5Ac(a2-3)Gal(b1-3)GalNAc
In short: as §1

[11] = target: Neu5Ac(a2-3)Gal(b1-3)GalNAc(b1-3)Gal(a1-4)Gal(b1-4)Glc
In short: as §1

[12] = target: Neu5Ac(a2-3)Gal(b1-3)GalNAc(b1-4)[Neu5Ac(a2-3)]Gal(b1-4)Glc
In short: as §1

[13] = target: Neu5Ac(a2-3)Gal(b1-3)GalNAc(b1-4)[Neu5Ac(a2-8)Neu5Ac(a2-3)]Gal(b1-4)Glc
In short: as §1

[14] = target: Neu5Ac(a2-3)Gal(b1-3)GalNAc6S
In short: as §1

[15] = target: Neu5Ac(a2-3)Gal(b1-3)GlcNAc
In short: as §1

[16] = target: Neu5Ac(a2-3)Gal(b1-3)GlcNAc(b1-2)Man
In short: as §1

[17] = target: Neu5Ac(a2-3)Gal(b1-3)GlcNAc(b1-2)Man(a1-3)[GlcNAc(b1-4)][Neu5Ac(a2-3)Gal(b1-3)GlcNAc(b1-2)Man(a1-6)]Man(b1-4)GlcNAc(b1-4)GlcNAc
In short: as §1

[18] = target: Neu5Ac(a2-3)Gal(b1-3)GlcNAc(b1-2)Man(a1-3)[Neu5Ac(a2-3)Gal(b1-3)GlcNAc(b1-2)Man(a1-6)]Man(b1-4)GlcNAc(b1-4)GlcNAc
In short: as §1

[19] = target: Neu5Ac(a2-3)Gal(b1-3)GlcNAc(b1-3)Gal(b1-3)GlcNAc
In short: as §1

[20] = target: Neu5Ac(a2-3)Gal(b1-3)GlcNAc(b1-3)Gal(b1-4)GlcNAc
In short: as §1

[21] = target: Neu5Ac(a2-3)Gal(b1-3)GlcNAc(b1-3)GalNAc
In short: as §1

[22] = target: Neu5Ac(a2-3)Gal(b1-3)GlcNAc(b1-4)Gal(b1-4)Glc
In short: as §1

[23] = target: Neu5Ac(a2-3)Gal(b1-3)GlcNAc(b1-6)GalNAc
In short: as §1

[24] = target: Neu5Ac(a2-3)Gal(b1-3)GlcNAc6S
In short: as §1

[25] = target: Neu5Ac(a2-3)Gal(b1-3)[Fuc(a1-4)]GlcNAc
In short: as §1

B1: GroEL (Clostridium difficile), Q18CT5 (protein)
chain: MAKEIKFSEETRRALEAGVNKLADTVKVTLGPKGRNVILDKKFGSPLITNDGVTIAKEIELEDRFENMGAQLVKEVATKTNDVAGDGTTTATVLAQAIIREGLKNVTAGANPILLRKGIQKAVTVAVEELKNQSRIVETQEAISQVASISAGDEEVGKLIAEAMEIVGKDGVITVEESQTMNTELDAVEGMQFDRGFVSAYMVTDVDKMEAVLNDPYILITDKKISNIQELLPVLEQIVQQGKKLLIIAEDVEGEALSTLVVNKLRGTFDVVAVKAPGFGDRRKEMLQDIAILTGAQVISEELGYDLKEADLSMLGRASSVKVTKESTTIVDGSGDKKAIEDRVTQIKHQVEQTTSDFDREKLMERLAKLAGGVAVVKVGAATEVELKERKLRIEDALNATRAAVEEGIVAGGGTAFVSVIPAIGTLIESLEGEVKLGAQIVKKALEEPLRQIAINAGLEGAVIVQNVVNSEAETGFDALNEKYVNMIEAGIVDPTKVSRSALQNAASIASTFLTTEAAVADLPEKEDAGMPGMGGGMPGMM
- glycan array binding signal (z-score) [1]: -0.359
- glycan array binding signal (z-score) [2]: 2.47
- glycan array binding signal (z-score) [3]: 0.972
- glycan array binding signal (z-score) [4]: -1.48
- glycan array binding signal (z-score) (Man(a1-3)[Man(a1-6)]Man): -0.789
- glycan array binding signal (z-score) [5]: 1.52
- glycan array binding signal (z-score) [6]: 2.57
- glycan array binding signal (z-score) [7]: 3.99
- glycan array binding signal (z-score) [8]: 0.123
- glycan array binding signal (z-score) [9]: -0.595
- glycan array binding signal (z-score) (Man(a1-6)Man): 1.95
- glycan array binding signal (z-score) (Man(b1-4)GlcNAc): -1.02
- glycan array binding signal (z-score) (MurNAc(b1-4)GlcNAc): 0.153
- glycan array binding signal (z-score) (Neu5Ac(a2-3)Gal): 0.101
- glycan array binding signal (z-score) [10]: -0.287
- glycan array binding signal (z-score) [11]: -1.2
- glycan array binding signal (z-score) [12]: -1.08
- glycan array binding signal (z-score) [13]: -0.272
- glycan array binding signal (z-score) [14]: -0.769
- glycan array binding signal (z-score) [15]: -0.171
- glycan array binding signal (z-score) [16]: -0.056
- glycan array binding signal (z-score) [17]: 1.2
- glycan array binding signal (z-score) [18]: -0.115
- glycan array binding signal (z-score) [19]: -0.917
- glycan array binding signal (z-score) [20]: 0.928
- glycan array binding signal (z-score) [21]: 0.139
- glycan array binding signal (z-score) [22]: 2.65
- glycan array binding signal (z-score) [23]: -0.316
- glycan array binding signal (z-score) [24]: 0.105
- glycan array binding signal (z-score) [25]: 0.038
